Data as given in PubChem BioAssay AID504774 (Drosophila RNAi Screening Center, 2011)
Aim: 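Genes required for cells to withstand methyl methanesulphonate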 (primary screen). Cells: Drosophila Kc167 cells. Reagents: long dsRNA against Drosophila genes, about 0.25 µg dsRNA per well. Time to read-out: about 6 days: 3 days knock-down, then 3 days with or without MMS. Treatment: methyl methanesulphonate 0.004% (w/v) for 3 days after knock-down. Read-out: 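Viability in wells given MMS, read as ATP luminescence, normalised by quantiles plate by plate and averaged across replicates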. Reading the numbers: mean viability with MMS and viability with MMS: higher = more surviving cells after MMS.
In all, the deposit lists about 23,000 reagents; shown is an unselected part of those with a known target gene and a result. 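Values are quantile-normalised luminescence on an arbitrary scale; higher means more cells surviving MMS.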 Names joined by + are all predicted targets of the reagent. No sequences are given here.

The first 3 entries, ahead of the listing:
| gene | PubChem SID | mean viability with MMS | viability with MMS, replicate 1 | viability with MMS, replicate 2 |
| --- | --- | --- | --- | --- |
| Awh (Arrowhead) | SID104187932 | 3.55e6 | 4.03e6 | 4.01e6 |
| RpL4 (Ribosomal protein L4) | SID104196625 | 2.80e6 | 3.63e6 | 3.63e6 |
| bru1 (bruno 1) | SID104181026 | 2.95e6 | 3.46e6 | 3.46e6 |

Results, from the first entry:
| gene | PubChem SID | mean viability with MMS | viability with MMS, replicate 1 | viability with MMS, replicate 2 |
| --- | --- | --- | --- | --- |
| Awh (Arrowhead) | SID104187932 | 3.55e6 | 4.03e6 | 4.01e6 |
| RpL4 (Ribosomal protein L4) | SID104196625 | 2.80e6 | 3.63e6 | 3.63e6 |
| bru1 (bruno 1) | SID104181026 | 2.95e6 | 3.46e6 | 3.46e6 |
| bru1 (bruno 1) | SID104181028 | 3.08e6 | 3.53e6 | 3.53e6 |
| bru1 (bruno 1) | SID104181029 | 3.47e6 | 3.87e6 | 4.01e6 |
| bru1 (bruno 1) | SID104181030 | 3.48e6 | 3.87e6 | 4.02e6 |
| bru1 (bruno 1) | SID104183277 | 3.46e6 | 4.03e6 | 3.79e6 |
| Tsp42Ep (Tetraspanin 42Ep) | SID104186663 | 3.57e6 | 3.89e6 | 4.00e6 |
| CG30375 | SID104186626 | 3.67e6 | 4.07e6 | 4.16e6 |
| CG3635 | SID104183521 | 3.61e6 | 4.24e6 | 3.96e6 |
| SoxN (SoxNeuro) | SID104183232 | 3.43e6 | 4.01e6 | 4.05e6 |
| SoxN (SoxNeuro) | SID104201440 | 3.22e6 | 3.80e6 | 3.73e6 |
| RhoL (Rho-like) | SID104196616 | 3.65e6 | 4.14e6 | 4.18e6 |
| brv1 (brivido-1) | SID104190868 | 3.63e6 | 4.19e6 | 4.02e6 |
| CG9018 | SID104188410 | 3.50e6 | 3.97e6 | 3.97e6 |
| Ccdc58 + CG34116 | SID104189897 | 3.54e6 | 4.06e6 | 3.95e6 |
| CG33642 | SID104181117 | 3.69e6 | 4.13e6 | 4.21e6 |
| tobi (target of brain insulin) | SID104194227 | 3.23e6 | 3.66e6 | 3.68e6 |
| CG11334 | SID104193858 | 3.46e6 | 3.99e6 | 3.88e6 |
| CG11334 | SID104194094 | 3.62e6 | 4.06e6 | 4.14e6 |
| Nup50 (Nucleoporin 50kD) | SID104186619 | 3.72e6 | 4.23e6 | 4.22e6 |
| CG3191 | SID104198322 | 3.64e6 | 4.18e6 | 4.05e6 |
| Pino (Pinocchio) | SID104179830 | 3.21e6 | 3.66e6 | 3.63e6 |
| Pino (Pinocchio) | SID104180454 | 3.40e6 | 3.78e6 | 3.80e6 |
| Lamtor4 (Late endosomal/lysosomal adaptor, MAPK and MTOR activator 4) | SID104188228 | 3.53e6 | 4.02e6 | 3.98e6 |
| CG18268 + CG3014 | SID104195111 | 3.52e6 | 4.07e6 | 3.93e6 |
| CG10657 | SID104189560 | 3.55e6 | 3.99e6 | 4.07e6 |
| P5CDh1 (delta-1-Pyrroline-5-carboxylate dehydrogenase 1) | SID104191593 | 3.49e6 | 4.01e6 | 3.90e6 |
| CG1368 | SID104199329 | 3.36e6 | 4.10e6 | 3.52e6 |
| qm (quemao) | SID104191178 | 3.71e6 | 4.29e6 | 4.11e6 |
| CG12824 | SID104185965 | 3.78e6 | 4.20e6 | 4.16e6 |
| CG4375 | SID104180445 | 3.50e6 | 3.96e6 | 3.98e6 |
| CG16986 | SID104188294 | 3.71e6 | 4.14e6 | 4.18e6 |
| Past1 (Putative Achaete Scute Target 1) | SID104196576 | 3.55e6 | 4.01e6 | 4.05e6 |
| CG17726 | SID104195047 | 1.85e6 | 4.01e6 | 4.02e6 |
| Mocs1 (Molybdenum cofactor synthesis 1) | SID104191017 | 3.74e6 | 4.04e6 | 4.35e6 |
| pdm2 (POU domain protein 2) | SID104182288 | 3.55e6 | 4.07e6 | 3.99e6 |
| pdm2 (POU domain protein 2) | SID104182289 | 3.35e6 | 3.74e6 | 3.84e6 |
| pdm2 (POU domain protein 2) | SID104183379 | 3.46e6 | 3.93e6 | 3.92e6 |
| temp (tempura) | SID104198063 | 3.63e6 | 4.21e6 | 4.00e6 |
| CG4004 | SID104199583 | 3.25e6 | 2.81e6 | 4.21e6 |
| CG4004 | SID104199674 | 3.59e6 | 4.14e6 | 3.98e6 |
| meru | SID104189192 | 3.57e6 | 4.19e6 | 3.90e6 |
| meru | SID104189691 | 3.39e6 | 3.90e6 | 3.74e6 |
| meru | SID104190007 | 3.72e6 | 4.31e6 | 4.03e6 |
| Cndp2 (Cytosolic non-specific dipeptidase 2) | SID104184665 | 3.58e6 | 4.12e6 | 4.00e6 |
